{
  "source": "PubChem BioAssay AID248",
  "about": "(DTP/NCI, 2004)",
  "test_system": "L1210 leukemia ip in BDF1 mice, survival T/C",
  "experiment": "NCI In Vivo Anticancer Drug Screen. Data for tumor model L1210 Leukemia (intraperitoneal) in B6D2F1 (BDF1) mice",
  "settings": "T/C endpoint: mean survival time, higher T/C = longer survival",
  "key": {"[1]": {"settings": "dose: 100.0 mg/kg/injection, schedule: Q01DX009 (ip), vehicle: saline"}, "[2]": {"settings": "dose: 100.0 mg/kg/injection, schedule: Q01DX001 (ip), vehicle: saline"}, "[3]": {"settings": "dose: 200.0 mg/kg/injection, schedule: Q01DX001 (ip), vehicle: saline"}, "[4]": {"settings": "dose: 400.0 mg/kg/injection, schedule: Q01DX001 (ip), vehicle: saline"}},
  "note": "The list does not hold the whole screen: it gathers tests that were run many times, whatever their T/C, doses with no T/C, and many T/C values between a quarter and a half above the control. Further doses and runs are listed elsewhere. T/C is the treated group as % of the vehicle group. Some entries give survivors of the animals treated and no T/C: the source holds a T/C of zero for them, seemingly a mark for toxic or unscored doses. Some survivor counts are full or nearly so, which does not show that the dose was tolerated: the source hardly ever lists a survival T/C far under the control, and the zero likely stands for such cases as well. Survivors were counted at the toxicity check, usually on the fifth day, unless a day is given; later deaths do not show. Schedule codes are those of the source, taken here to give the interval after Q, in days (D) or hours (H), and the number of doses after X. For survival time, the PubChem record calls one and a half times the control and up active, and a quarter to a half above the control has no call in these data; cut-offs in other NCI protocols can differ. Some T/C values carry the count of animals alive at the toxicity check (mostly the fifth day); without a count, all were alive then.",
  "data": [
    {"smiles": "CN(C)CC(CN1c2ccccc2Sc2ccccc21)N(C)C", "note": "(stereo unspecified)", "values": [
      {"measurement": "survivor count", "setting": "[1]", "value": "0 of 6"},
      {"measurement": "survivor count", "setting": "dose: 200.0 mg/kg/injection, schedule: Q04DX003 (ip), vehicle: saline", "value": "0 of 4"},
      {"measurement": "survivor count", "setting": "dose: 400.0 mg/kg/injection, schedule: Q04DX003 (ip), vehicle: saline", "value": "0 of 4"}
    ]},
    {"smiles": "CCCCSP(=O)(N1CCCCC1)N1CCCCC1", "values": [
      {"measurement": "survivor count", "setting": "dose: 200.0 mg/kg/injection, schedule: Q04DX002 (ip), vehicle: saline with Tween-80", "value": "1 of 3"},
      {"measurement": "survivor count", "setting": "dose: 400.0 mg/kg/injection, schedule: Q04DX002 (ip), vehicle: saline with Tween-80", "value": "0 of 3"}
    ]},
    {"smiles": "CC(NC(=O)c1ccccc1)C(=O)O", "note": "(stereo unspecified)", "values": [
      {"measurement": "survivor count", "setting": "dose: 200.0 mg/kg/injection, schedule: Q01DX009 (ip), vehicle: Klucel (hydroxypropylcellulose) (HPC)", "value": "6 of 6"}
    ]},
    {"smiles": "CC(=O)OCC1OC(OC2CCCc3c(O)c4c(c(O)c32)C(=O)c2ccccc2C4=O)C(OC(C)=O)C(OC(C)=O)C1OC(C)=O", "note": "(stereo unspecified)", "values": [
      {"measurement": "survivor count", "setting": "dose: 5.0 mg/kg/injection, schedule: Q01DX001 (ip), vehicle: saline", "value": "4 of 4"},
      {"measurement": "survivor count", "setting": "dose: 10.0 mg/kg/injection, schedule: Q01DX001 (ip), vehicle: saline", "value": "4 of 4"},
      {"measurement": "survivor count", "setting": "dose: 20.0 mg/kg/injection, schedule: Q01DX001 (ip), vehicle: saline", "value": "4 of 4"},
      {"measurement": "survivor count", "setting": "[2]", "value": "4 of 4"},
      {"measurement": "survivor count", "setting": "[3]", "value": "4 of 4"},
      {"measurement": "survivor count", "setting": "[4]", "value": "4 of 4"}
    ]},
    {"smiles": "COc1ccc(OC)c(NC(=O)Nc2ccc([As](=O)(O)O)cc2)c1", "values": [
      {"measurement": "survivor count", "setting": "dose: 100.0 mg/kg/injection, schedule: Q04DX003 (ip), vehicle: Klucel (hydroxypropylcellulose) (HPC)", "value": "6 of 6"},
      {"measurement": "survivor count", "setting": "dose: 400.0 mg/kg/injection, schedule: Q04DX003 (ip), vehicle: Klucel (hydroxypropylcellulose) (HPC)", "value": "5 of 6"}
    ]},
    {"smiles": "C/C=C1\\C(=O)O[C@@]23C=C[C@H]4C(C(=O)OC)=CO[C@@H](O[C@H]12)[C@H]43", "values": [
      {"measurement": "survivor count", "setting": "dose: 80.0 mg/kg/injection, schedule: Q01DX001 (ip), vehicle: saline", "value": "3 of 6"}
    ]},
    {"smiles": "CC(C)C(NC(=O)C(CSCc1ccccc1)NC(=O)OCc1ccccc1)C(N)=O", "note": "(stereo unspecified)", "values": [
      {"measurement": "survivor count", "setting": "dose: 400.0 mg/kg/injection, schedule: Q01DX009 (ip), vehicle: Klucel (hydroxypropylcellulose) (HPC)", "value": "5 of 6"}
    ]},
    {"smiles": "O=C(C(Br)c1ccccc1)C(Br)c1ccccc1", "note": "(stereo unspecified)", "values": [
      {"measurement": "survivor count", "setting": "dose: 100.0 mg/kg/injection, schedule: Q04DX003 (ip), vehicle: saline with Tween-80", "value": "6 of 6"},
      {"measurement": "survivor count", "setting": "dose: 200.0 mg/kg/injection, schedule: Q04DX003 (ip), vehicle: saline with Tween-80", "value": "0 of 6"},
      {"measurement": "survivor count", "setting": "dose: 400.0 mg/kg/injection, schedule: Q04DX003 (ip), vehicle: saline with Tween-80", "value": "0 of 6"}
    ]},
    {"smiles": "CN(C)c1ncnc2c1ncn2C1CCC(CO)C1", "note": "(stereo unspecified)", "values": [
      {"measurement": "survivor count", "setting": "dose: 400.0 mg/kg/injection, schedule: Q01DX001 (ip), vehicle: carboxymethylcellulose (CMC)", "value": "2 of 4"}
    ]},
    {"smiles": "O=C(NC/C=C/Br)Nc1c2ccccc2nc2ccccc12", "values": [
      {"measurement": "survivor count", "setting": "[1]", "value": "0 of 6"},
      {"measurement": "survivor count", "setting": "dose: 200.0 mg/kg/injection, schedule: Q01DX009 (ip), vehicle: saline", "value": "0 of 6"},
      {"measurement": "survivor count", "setting": "dose: 400.0 mg/kg/injection, schedule: Q01DX009 (ip), vehicle: saline", "value": "0 of 6"}
    ]},
    {"smiles": "C=CCC1CC2(C)C(CCC3C2CCC2(C)C(OC(C)=O)CCC32)CC1=O", "note": "(stereo unspecified)", "values": [
      {"measurement": "survivor count", "setting": "dose: 400.0 mg/kg/injection, schedule: Q01DX009 (ip), vehicle: gum acacia", "value": "5 of 5"}
    ]},
    {"smiles": "O=C1C=CCC2c3nc4ccccc4cc3CN12", "note": "(stereo unspecified)", "values": [
      {"measurement": "survivor count", "setting": "dose: 300.0 mg/kg/injection, schedule: Q04DX003 (ip), vehicle: saline", "value": "1 of 6"}
    ]},
    {"smiles": "CCOC(=O)Nc1cc2c(c(N)n1)N=C(c1ccc(-c3ccccc3)cc1)CN2", "values": [
      {"measurement": "T/C", "setting": "dose: 100.0 mg/kg/injection, schedule: Q01DX001 (ip), vehicle: Klucel (hydroxypropylcellulose) (HPC)", "value": "131 % of control [5 of 6 alive]"},
      {"measurement": "survivor count", "setting": "dose: 200.0 mg/kg/injection, schedule: Q01DX001 (ip), vehicle: Klucel (hydroxypropylcellulose) (HPC)", "value": "2 of 6"},
      {"measurement": "survivor count", "setting": "dose: 400.0 mg/kg/injection, schedule: Q01DX001 (ip), vehicle: Klucel (hydroxypropylcellulose) (HPC)", "value": "1 of 6"}
    ]},
    {"smiles": "CC1=C(N=[N+]=[N-])C(=O)C(C)=C(N=[N+]=[N-])C1=O", "values": [
      {"measurement": "survivor count", "setting": "[2]", "value": "4 of 4"},
      {"measurement": "survivor count", "setting": "[3]", "value": "1 of 4"},
      {"measurement": "survivor count", "setting": "[4]", "value": "0 of 4"}
    ]}
  ]
}
